In article PMC8840131:

Biological target: Platycodon grandiflorus FLOWERING LOCUS T (PlgFT) (Platycodon grandiflorus)
Test: two-hybrid; Matchmaker GAL4 Two-hybrid System 3, yeast AH109; PlgFT as bait (pGBKT7), AtFD as prey (pGADT7); growth on SD medium without Leu, Trp and His; empty vectors as negative controls

binding: binds
B1: Arabidopsis FLOWERING LOCUS D (AtFD) (protein, UniProt Q84JK2 1-285)
chain: MLSSAKHQRNHRLSATNKNQTLTKVSSISSSSPSSSSSSSSTSSSSPLPSQDSQAQKRSLVTMEEVWNDINLASIHHLNRHSPHPQHNHEPRFRGQNHHNQNPNSIFQDFLKGSLNQEPAPTSQTTGSAPNGDSTTVTVLYSSPFPPPATVLSLNSGAGFEFLDNQDPLVTSNSNLHTHHHLSNAHAFNTSFEALVPSSSFGKKRGQDSNEGSGNRRHKRMIKNRESAARSRARKQAYTNELELEVAHLQAENARLKRQQDQLKMAAAIQQPKKNTLQRSSTAPF

These are yes or no findings as the source states them, for the method shown. A result given as binding can be weak or reduced; the word gives no strength.
